Laboratory results taken from the supplement of paper PMC12067093, “Discovery and optimisation of a covalent ligand for TRIM25 and its application to targeted protein ubiquitination” (Chemical Science, 2025).
This is one part of the list.

By UniProt entry, the sequences of proteins in these tests, tags left out. Where a name states a change or a piece, a line headed by the entry shows the natural chain unless it says otherwise.
UniProt Q96QT6: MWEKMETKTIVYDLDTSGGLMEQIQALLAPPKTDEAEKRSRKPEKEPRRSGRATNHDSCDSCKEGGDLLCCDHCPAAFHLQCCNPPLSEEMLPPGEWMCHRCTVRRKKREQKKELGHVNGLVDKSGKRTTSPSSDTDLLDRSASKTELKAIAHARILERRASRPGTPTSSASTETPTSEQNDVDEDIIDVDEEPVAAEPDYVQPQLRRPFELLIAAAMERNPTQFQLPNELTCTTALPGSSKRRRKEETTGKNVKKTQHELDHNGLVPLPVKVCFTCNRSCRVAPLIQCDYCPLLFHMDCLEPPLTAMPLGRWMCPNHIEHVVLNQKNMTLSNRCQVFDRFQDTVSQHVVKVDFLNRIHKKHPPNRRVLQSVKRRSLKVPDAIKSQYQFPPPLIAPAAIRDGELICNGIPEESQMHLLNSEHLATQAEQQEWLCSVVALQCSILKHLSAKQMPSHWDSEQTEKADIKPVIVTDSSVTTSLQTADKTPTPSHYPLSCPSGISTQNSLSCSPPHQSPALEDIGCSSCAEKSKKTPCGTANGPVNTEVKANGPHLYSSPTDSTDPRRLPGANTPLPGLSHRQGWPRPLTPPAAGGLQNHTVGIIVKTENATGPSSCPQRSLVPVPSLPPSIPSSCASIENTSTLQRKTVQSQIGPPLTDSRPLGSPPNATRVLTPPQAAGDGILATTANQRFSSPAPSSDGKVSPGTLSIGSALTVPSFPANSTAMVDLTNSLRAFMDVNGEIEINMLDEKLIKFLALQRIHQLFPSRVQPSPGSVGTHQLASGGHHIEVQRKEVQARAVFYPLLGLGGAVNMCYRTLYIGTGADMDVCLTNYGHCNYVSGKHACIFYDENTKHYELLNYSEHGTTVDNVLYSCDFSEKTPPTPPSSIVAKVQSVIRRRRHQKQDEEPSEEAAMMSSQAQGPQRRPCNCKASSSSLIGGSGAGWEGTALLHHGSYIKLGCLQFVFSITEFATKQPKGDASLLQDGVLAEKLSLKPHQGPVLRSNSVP
UniProt P15735: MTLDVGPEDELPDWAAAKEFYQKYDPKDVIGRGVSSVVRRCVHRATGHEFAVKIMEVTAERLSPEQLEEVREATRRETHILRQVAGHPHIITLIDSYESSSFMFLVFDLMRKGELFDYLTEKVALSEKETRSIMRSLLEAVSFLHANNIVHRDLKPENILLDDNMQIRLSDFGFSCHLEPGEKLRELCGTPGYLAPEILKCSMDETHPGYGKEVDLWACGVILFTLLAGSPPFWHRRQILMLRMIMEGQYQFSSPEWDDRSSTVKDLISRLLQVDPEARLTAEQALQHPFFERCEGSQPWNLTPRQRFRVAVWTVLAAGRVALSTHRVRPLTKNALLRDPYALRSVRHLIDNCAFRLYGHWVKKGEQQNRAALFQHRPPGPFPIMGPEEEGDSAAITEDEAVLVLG
UniProt Q16875: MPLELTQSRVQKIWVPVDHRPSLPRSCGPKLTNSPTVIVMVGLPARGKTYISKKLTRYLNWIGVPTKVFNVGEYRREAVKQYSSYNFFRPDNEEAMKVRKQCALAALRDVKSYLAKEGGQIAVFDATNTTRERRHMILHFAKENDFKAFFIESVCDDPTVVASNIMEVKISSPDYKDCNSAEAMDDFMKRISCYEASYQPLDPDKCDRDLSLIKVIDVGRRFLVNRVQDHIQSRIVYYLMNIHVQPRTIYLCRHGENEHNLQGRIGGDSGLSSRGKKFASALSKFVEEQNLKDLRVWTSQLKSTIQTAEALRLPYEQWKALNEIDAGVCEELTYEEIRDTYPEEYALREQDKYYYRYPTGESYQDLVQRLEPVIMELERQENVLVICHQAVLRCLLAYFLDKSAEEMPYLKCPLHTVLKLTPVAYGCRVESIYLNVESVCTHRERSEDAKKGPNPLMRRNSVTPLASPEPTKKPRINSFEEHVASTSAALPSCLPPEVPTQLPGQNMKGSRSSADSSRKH
UniProt P12955: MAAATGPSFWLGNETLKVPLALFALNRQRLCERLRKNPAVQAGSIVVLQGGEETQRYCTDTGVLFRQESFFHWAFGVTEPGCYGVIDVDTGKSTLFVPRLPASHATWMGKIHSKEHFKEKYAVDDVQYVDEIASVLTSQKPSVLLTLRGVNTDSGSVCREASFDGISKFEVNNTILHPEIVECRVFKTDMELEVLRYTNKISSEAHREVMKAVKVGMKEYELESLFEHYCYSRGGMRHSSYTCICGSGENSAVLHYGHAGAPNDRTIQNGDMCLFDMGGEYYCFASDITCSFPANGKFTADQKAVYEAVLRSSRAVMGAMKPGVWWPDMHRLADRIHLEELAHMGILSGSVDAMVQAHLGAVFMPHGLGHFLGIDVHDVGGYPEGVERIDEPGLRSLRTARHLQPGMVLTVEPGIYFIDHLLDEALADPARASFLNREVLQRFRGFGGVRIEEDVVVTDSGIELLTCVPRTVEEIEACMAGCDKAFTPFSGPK
UniProt Q99471, whole entry: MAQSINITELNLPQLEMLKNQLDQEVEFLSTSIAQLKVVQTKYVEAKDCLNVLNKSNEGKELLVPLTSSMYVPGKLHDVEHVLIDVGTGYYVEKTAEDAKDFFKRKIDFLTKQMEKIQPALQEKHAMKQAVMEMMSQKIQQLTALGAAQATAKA
UniProt O43175: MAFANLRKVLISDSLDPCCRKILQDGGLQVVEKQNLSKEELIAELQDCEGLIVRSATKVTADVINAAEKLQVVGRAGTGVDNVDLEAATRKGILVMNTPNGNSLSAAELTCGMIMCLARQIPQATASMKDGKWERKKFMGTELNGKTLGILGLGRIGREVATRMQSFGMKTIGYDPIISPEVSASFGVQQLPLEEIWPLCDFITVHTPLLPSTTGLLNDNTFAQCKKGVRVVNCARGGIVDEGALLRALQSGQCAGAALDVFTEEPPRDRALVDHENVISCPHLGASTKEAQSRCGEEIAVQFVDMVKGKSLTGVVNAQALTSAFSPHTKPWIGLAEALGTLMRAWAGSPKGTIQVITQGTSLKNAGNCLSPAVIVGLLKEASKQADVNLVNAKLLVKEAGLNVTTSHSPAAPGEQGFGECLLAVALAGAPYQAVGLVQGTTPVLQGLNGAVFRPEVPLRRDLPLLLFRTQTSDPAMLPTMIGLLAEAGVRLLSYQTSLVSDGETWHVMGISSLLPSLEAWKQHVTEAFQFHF
UniProt O94880: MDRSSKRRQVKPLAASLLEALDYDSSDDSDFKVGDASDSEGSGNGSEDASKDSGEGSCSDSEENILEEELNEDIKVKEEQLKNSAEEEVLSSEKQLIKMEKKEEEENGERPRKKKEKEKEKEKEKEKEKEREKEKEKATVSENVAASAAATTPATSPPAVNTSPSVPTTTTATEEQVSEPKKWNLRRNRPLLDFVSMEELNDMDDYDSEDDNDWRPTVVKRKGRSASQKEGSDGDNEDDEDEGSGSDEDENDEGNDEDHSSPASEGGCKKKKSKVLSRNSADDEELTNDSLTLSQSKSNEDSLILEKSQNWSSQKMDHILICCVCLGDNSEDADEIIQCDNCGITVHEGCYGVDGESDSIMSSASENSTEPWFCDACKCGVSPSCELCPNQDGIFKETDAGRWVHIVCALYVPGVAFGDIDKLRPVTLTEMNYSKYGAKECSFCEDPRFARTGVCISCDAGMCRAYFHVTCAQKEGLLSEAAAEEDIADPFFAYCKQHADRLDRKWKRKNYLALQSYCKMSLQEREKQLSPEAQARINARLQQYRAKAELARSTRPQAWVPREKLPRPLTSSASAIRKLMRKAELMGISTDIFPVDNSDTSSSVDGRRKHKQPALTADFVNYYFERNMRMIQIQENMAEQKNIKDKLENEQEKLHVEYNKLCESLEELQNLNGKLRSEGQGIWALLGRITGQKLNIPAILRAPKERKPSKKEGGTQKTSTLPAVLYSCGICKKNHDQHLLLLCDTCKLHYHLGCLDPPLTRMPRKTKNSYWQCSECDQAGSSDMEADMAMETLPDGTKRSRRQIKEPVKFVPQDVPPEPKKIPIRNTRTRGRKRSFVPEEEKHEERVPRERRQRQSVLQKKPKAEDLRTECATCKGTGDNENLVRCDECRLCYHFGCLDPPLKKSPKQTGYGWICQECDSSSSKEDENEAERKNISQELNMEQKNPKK
UniProt O75151: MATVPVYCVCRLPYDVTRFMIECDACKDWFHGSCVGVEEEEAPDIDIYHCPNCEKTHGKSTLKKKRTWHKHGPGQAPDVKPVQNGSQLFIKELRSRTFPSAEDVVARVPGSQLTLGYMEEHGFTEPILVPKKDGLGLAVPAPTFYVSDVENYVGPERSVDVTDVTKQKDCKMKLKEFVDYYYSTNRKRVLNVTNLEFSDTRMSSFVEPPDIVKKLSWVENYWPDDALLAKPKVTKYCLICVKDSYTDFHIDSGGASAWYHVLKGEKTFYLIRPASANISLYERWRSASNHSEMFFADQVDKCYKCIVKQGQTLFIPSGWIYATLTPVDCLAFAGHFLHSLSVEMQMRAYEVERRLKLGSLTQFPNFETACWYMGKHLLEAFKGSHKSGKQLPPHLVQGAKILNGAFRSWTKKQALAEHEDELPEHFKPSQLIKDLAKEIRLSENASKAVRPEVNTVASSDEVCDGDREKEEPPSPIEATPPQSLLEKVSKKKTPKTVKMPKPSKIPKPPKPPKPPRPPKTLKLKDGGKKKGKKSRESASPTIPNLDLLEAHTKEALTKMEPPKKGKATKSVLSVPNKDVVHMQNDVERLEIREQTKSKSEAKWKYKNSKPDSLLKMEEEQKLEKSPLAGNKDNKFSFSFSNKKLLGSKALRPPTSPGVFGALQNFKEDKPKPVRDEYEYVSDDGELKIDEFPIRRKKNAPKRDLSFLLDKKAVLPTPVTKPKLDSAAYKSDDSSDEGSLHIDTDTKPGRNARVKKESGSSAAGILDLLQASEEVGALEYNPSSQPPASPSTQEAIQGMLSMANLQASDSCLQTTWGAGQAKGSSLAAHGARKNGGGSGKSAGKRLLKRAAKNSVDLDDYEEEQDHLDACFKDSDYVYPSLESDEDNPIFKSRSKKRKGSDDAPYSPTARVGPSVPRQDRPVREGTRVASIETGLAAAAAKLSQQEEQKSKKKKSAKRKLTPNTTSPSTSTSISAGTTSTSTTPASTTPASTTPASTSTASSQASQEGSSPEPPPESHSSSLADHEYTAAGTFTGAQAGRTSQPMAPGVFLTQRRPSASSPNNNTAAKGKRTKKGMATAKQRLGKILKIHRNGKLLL
UniProt Q7RTV0, whole entry, looked up: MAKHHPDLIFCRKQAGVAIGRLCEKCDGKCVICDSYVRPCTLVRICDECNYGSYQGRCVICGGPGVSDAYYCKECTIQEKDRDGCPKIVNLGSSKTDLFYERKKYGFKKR
UniProt Q9BRB3: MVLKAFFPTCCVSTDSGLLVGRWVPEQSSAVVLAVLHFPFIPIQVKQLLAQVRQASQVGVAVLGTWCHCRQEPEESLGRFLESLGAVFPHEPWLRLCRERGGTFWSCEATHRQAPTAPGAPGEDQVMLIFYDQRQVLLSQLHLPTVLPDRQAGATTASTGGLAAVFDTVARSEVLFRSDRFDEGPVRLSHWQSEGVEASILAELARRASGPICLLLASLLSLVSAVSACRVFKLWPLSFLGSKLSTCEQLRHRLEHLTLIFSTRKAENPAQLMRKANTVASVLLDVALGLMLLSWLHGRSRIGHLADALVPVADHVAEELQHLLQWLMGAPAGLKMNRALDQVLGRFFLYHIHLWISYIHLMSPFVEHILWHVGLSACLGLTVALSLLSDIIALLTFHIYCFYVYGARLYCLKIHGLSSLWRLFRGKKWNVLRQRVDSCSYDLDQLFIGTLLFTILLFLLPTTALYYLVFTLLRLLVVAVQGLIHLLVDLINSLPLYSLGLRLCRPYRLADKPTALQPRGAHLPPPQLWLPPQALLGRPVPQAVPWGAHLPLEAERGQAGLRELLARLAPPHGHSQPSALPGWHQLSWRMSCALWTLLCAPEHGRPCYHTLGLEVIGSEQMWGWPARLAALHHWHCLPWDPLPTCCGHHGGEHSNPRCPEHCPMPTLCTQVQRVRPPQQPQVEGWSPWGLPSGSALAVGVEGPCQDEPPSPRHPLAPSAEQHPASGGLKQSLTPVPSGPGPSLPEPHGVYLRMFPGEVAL
UniProt P36871: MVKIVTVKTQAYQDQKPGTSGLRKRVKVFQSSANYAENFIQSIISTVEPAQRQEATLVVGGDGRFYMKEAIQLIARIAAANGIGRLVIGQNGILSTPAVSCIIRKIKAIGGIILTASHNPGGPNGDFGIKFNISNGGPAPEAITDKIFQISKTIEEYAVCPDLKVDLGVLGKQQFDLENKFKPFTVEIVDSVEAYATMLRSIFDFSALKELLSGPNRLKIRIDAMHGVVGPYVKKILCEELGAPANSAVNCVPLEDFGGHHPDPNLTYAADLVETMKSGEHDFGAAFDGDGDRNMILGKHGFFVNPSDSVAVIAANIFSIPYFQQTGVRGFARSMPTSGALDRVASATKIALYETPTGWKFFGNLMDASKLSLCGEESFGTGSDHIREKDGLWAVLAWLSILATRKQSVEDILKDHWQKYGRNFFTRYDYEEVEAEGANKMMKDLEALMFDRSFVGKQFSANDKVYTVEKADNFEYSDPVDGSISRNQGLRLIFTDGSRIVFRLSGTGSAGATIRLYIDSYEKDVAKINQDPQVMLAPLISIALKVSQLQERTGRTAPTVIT

Compound: Cc1cc(ccc1-c1ccccc1)C(=O)N1CCCN(CC1)C(=O)CCl [compound 10]
Experiment: probe-labelled cysteine peptide fold change vs DMSO (competition) (log2 fold change); higher = less target engagement (more negative = stronger competition)
Conditions: THP-1, incubation time: 4 h
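Note: competitive profiling in live THP-1 cells: cysteine peptides tagged with an iodoacetamide desthiobiotin (IA-DTB) probe, intensity after compound treatment relative to DMSO-treated cells.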

PHF12_Q96QT6_315_WMCPNHIEHVVLNQK (UniProt Q96QT6)
probe-labelled cysteine peptide fold change (10 µM): 0.384
probe-labelled cysteine peptide fold change (50 µM): 0.325

PHKG2_P15735_353_HLIDNCAFR (UniProt P15735)
probe-labelled cysteine peptide fold change (10 µM): 0.0938
probe-labelled cysteine peptide fold change (50 µM): 0.16

PGLYRP2_Q96PD5_379_EFTEAFLGCPAIHPR (UniProt Q96PD5)
probe-labelled cysteine peptide fold change (10 µM): -0.1
probe-labelled cysteine peptide fold change (50 µM): -0.0269

PELP1_Q8IZL8_522_KGDSNANSDVCAAALR (UniProt Q8IZL8)
probe-labelled cysteine peptide fold change (10 µM): 0.0142
probe-labelled cysteine peptide fold change (50 µM): 0.00462

PHIP_Q8WWQ0_1020_YEVGLPTLCCLK (UniProt Q8WWQ0)
probe-labelled cysteine peptide fold change (10 µM): 0.0426
probe-labelled cysteine peptide fold change (50 µM): -0.0146

PFKFB3_Q16875_178_DCNSAEAMDDFMK (UniProt Q16875)
probe-labelled cysteine peptide fold change (10 µM): 0.00332
probe-labelled cysteine peptide fold change (50 µM): 0.0296

PEPD_P12955_482_TVEEIEACMAGCDK (UniProt P12955)
probe-labelled cysteine peptide fold change (10 µM): -0.226
probe-labelled cysteine peptide fold change (50 µM): -0.358

PFN2_P35080_84_DSLYVDGDCTMDIR (UniProt P35080)
probe-labelled cysteine peptide fold change (10 µM): 0.106
probe-labelled cysteine peptide fold change (50 µM): 0.184

PFDN5_Q99471_49_DCLNVLNK (UniProt Q99471)
probe-labelled cysteine peptide fold change (10 µM): 0.21
probe-labelled cysteine peptide fold change (50 µM): 0.0309

PHGDH_O43175_369_NAGNCLSPAVIVGLLK (UniProt O43175)
probe-labelled cysteine peptide fold change (10 µM): -0.159
probe-labelled cysteine peptide fold change (50 µM): -0.84

PHGDH_O43175_111+116_KGILVMNTPNGNSLSAAELTCGMIMCLAR (UniProt O43175)
probe-labelled cysteine peptide fold change (10 µM): 0.412
probe-labelled cysteine peptide fold change (50 µM): 0.139

PGD_P52209_402_SAVENCQDSWR (UniProt P52209)
probe-labelled cysteine peptide fold change (10 µM): 0.0887
probe-labelled cysteine peptide fold change (50 µM): 0.174

PHF14_O94880-2_612_LCYHFGCLDPPLK (UniProt O94880)
probe-labelled cysteine peptide fold change (10 µM): -0.000102
probe-labelled cysteine peptide fold change (50 µM): -0.329

PEX6_Q13608_358_VVQEGDVLCVPTIGQVEILEGSPEK (UniProt Q13608)
probe-labelled cysteine peptide fold change (10 µM): -0.199
probe-labelled cysteine peptide fold change (50 µM): 0.186

PELO_Q9BRX2_204_CILVASPGFVR (UniProt Q9BRX2)
probe-labelled cysteine peptide fold change (10 µM): 0.137
probe-labelled cysteine peptide fold change (50 µM): 0.22

PFKP_Q01813_718_KFTTDDSICVLGISK (UniProt Q01813)
probe-labelled cysteine peptide fold change (10 µM): -0.0112
probe-labelled cysteine peptide fold change (50 µM): -0.172

PHGDH_O43175_295_CGEEIAVQFVDMVK (UniProt O43175)
probe-labelled cysteine peptide fold change (10 µM): -0.0946
probe-labelled cysteine peptide fold change (50 µM): -0.0481

PFAS_O15067_351_GAHVVAGTAGYCFGNLHIPGYNLPWEDPSFQYPGNFAR (UniProt O15067)
probe-labelled cysteine peptide fold change (10 µM): 0.0247
probe-labelled cysteine peptide fold change (50 µM): -0.409

PFKFB3_Q16875_102_QCALAALR (UniProt Q16875)
probe-labelled cysteine peptide fold change (10 µM): -0.03
probe-labelled cysteine peptide fold change (50 µM): -0.0221

PHF2_O75151_869_NSVDLDDYEEEQDHLDACFK (UniProt O75151)
probe-labelled cysteine peptide fold change (10 µM): 0.705
probe-labelled cysteine peptide fold change (50 µM): 0.0194

PHGDH_O43175_116_GILVMNTPNGNSLSAAELTCGMIMCLAR (UniProt O43175)
probe-labelled cysteine peptide fold change (10 µM): 0.0514
probe-labelled cysteine peptide fold change (50 µM): 0.173

PFN1_P07737_128_KCYEMASHLR (UniProt P07737)
probe-labelled cysteine peptide fold change (10 µM): -0.333
probe-labelled cysteine peptide fold change (50 µM): -0.673

PHF5A_Q7RTV0_75_ECTIQEK (UniProt Q7RTV0)
probe-labelled cysteine peptide fold change (10 µM): -0.0797
probe-labelled cysteine peptide fold change (50 µM): -0.327

PIGQ_Q9BRB3_247_LSTCEQLR (UniProt Q9BRB3)
probe-labelled cysteine peptide fold change (10 µM): -0.169
probe-labelled cysteine peptide fold change (50 µM): -0.666

PGM1_P36871_101_LVIGQNGILSTPAVSCIIR (UniProt P36871)
probe-labelled cysteine peptide fold change (10 µM): -0.387
probe-labelled cysteine peptide fold change (50 µM): 0.0617

PIK3C2A_O00443_13_ECPSSHPEPTR (UniProt O00443)
probe-labelled cysteine peptide fold change (10 µM): -0.0787
probe-labelled cysteine peptide fold change (50 µM): -0.38

PFKFB2_O60825_255_TIYLCR (UniProt O60825)
probe-labelled cysteine peptide fold change (10 µM): -0.0341
probe-labelled cysteine peptide fold change (50 µM): 0.0668

PGM2_Q96G03_573_YYAELCAPPGNSDPEQLKK (UniProt Q96G03)
probe-labelled cysteine peptide fold change (10 µM): -0.148
probe-labelled cysteine peptide fold change (50 µM): -0.304

PGM1_P36871_160_TIEEYAVCPDLK (UniProt P36871)
probe-labelled cysteine peptide fold change (10 µM): -0.131
probe-labelled cysteine peptide fold change (50 µM): 0.054

PHF12_Q96QT6_613_TENATGPSSCPQR (UniProt Q96QT6)
probe-labelled cysteine peptide fold change (10 µM): -0.265
probe-labelled cysteine peptide fold change (50 µM): -0.482

PHRF1_Q9P1Y6_962_TVTCVTVVEPEAPPSPDVLQAATHR (UniProt Q9P1Y6)
probe-labelled cysteine peptide fold change (10 µM): -0.507
probe-labelled cysteine peptide fold change (50 µM): -0.54

PGAM1_P18669_153_RYADLTEDQLPSCESLK (UniProt P18669)
probe-labelled cysteine peptide fold change (10 µM): -0.161
probe-labelled cysteine peptide fold change (50 µM): -0.282

PHF20L1_A8MW92_497_GSEVTAPVASDSSYRNECPR (UniProt A8MW92)
probe-labelled cysteine peptide fold change (10 µM): -0.0394
probe-labelled cysteine peptide fold change (50 µM): 0.00665

PI4KA_P42356_1131_QNTTLGATQLSERPACVK (UniProt P42356)
probe-labelled cysteine peptide fold change (10 µM): -0.134
probe-labelled cysteine peptide fold change (50 µM): -0.0751

PHF14_O94880_518_NYLALQSYCK (UniProt O94880)
probe-labelled cysteine peptide fold change (10 µM): -0.209
probe-labelled cysteine peptide fold change (50 µM): -0.0964

PGM2L1_Q6PCE3_303_CPNPEEGESVLELSLR (UniProt Q6PCE3)
probe-labelled cysteine peptide fold change (10 µM): -0.215
probe-labelled cysteine peptide fold change (50 µM): -0.533
